# The list shows a part of the results.
# B1: SP15308B-bot-339-22-339 (Bacteroides ovatus) (protein)
# chain: NEWEDEQYEQYVSFKAPIASGSDGVTTIYVRYKDNGKVTYQLPIIVSGSTVNSQDRDIHIAVDKDTLKTLNIERFSLYRPELWYTEMEEDKYEFPETVHIPAGSCVELLNIDFNLQDIDMLEKWVLPLTIVDDGSYAYQSHPRKNYAKALLKVVPFNNYSGSYTASSMKVYTYINGKPDTNARTTDKRTGYVVDNNSIFFYAGLINEDMDKDMRKKYKINVHFKEDGTLDMKQDDPSNEMEFELIGTPTYSSTSVMDATRPYLERRYVQIMFEYDFQDFTYGGSGTEVIPIKYRVAGSMTLLRNINTQIPDEDQQIEW
# Columns and labels:
# Experiment in all cases: glycan array binding signal (z-score within array); higher = stronger binding
# Conditions in all cases: glycan notation: IUPAC condensed, linker removed
# [1] = molecular target: GlcNAc(b1-3)Gal(b1-4)GlcNAc(b1-3)Gal(b1-4)GlcNAc(b1-3)Gal(b1-4)GlcNAc(b1-3)Gal(b1-4)GlcNAc(b1-2)[GlcNAc(b1-3)Gal(b1-4)GlcNAc(b1-3)Gal(b1-4)GlcNAc(b1-3)Gal(b1-4)GlcNAc(b1-3)Gal(b1-4)GlcNAc(b1-6)]Man(a1-6)[GlcNAc(b1-3)Gal(b1-4)GlcNAc(b1-3)Gal(b1-4)GlcNAc(b1-3)Gal(b1-4)GlcNAc(b1-3)Gal(b1-4)GlcNAc(b1-2)Man(a1-3)]Man(b1-4)GlcNAc(b1-4)[Fuc(a1-6)]GlcNAc
# Summary of the method: (§1)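 The binding signal is a Z-score computed within each array and averaged over linkers. Arrays of the same protein sequence at different concentrations or buffers were also averaged together. Data originate from 3228 arrays in the Consortium for Functional Glycomics database, kept only where the protein sequence was available.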
# [2] = molecular target: GlcNAc(b1-3)Gal(b1-4)GlcNAc(b1-3)Gal(b1-4)GlcNAc(b1-3)GalNAc
# Summary of the method: as §1
# [3] = molecular target: GlcNAc(b1-3)Gal(b1-4)GlcNAc(b1-3)GalNAc
# Summary of the method: as §1
# [4] = molecular target: GlcNAc(b1-3)Gal(b1-4)GlcNAc(b1-3)[GlcNAc(b1-3)Gal(b1-4)GlcNAc(b1-3)]GalNAc
# Summary of the method: as §1
# [5] = molecular target: GlcNAc(b1-3)Gal(b1-4)GlcNAc(b1-6)[Gal(b1-3)]GalNAc
# Summary of the method: as §1
# [6] = molecular target: GlcNAc(b1-3)Gal(b1-4)GlcNAc(b1-6)[GlcNAc(b1-3)Gal(b1-3)]GalNAc
# Summary of the method: as §1
# [7] = molecular target: GlcNAc(b1-3)Gal(b1-4)GlcNAc(b1-6)[GlcNAc(b1-3)]Gal(b1-4)GlcNAc
# Summary of the method: as §1
# [8] = molecular target: GlcNAc(b1-3)GalNAc
# Summary of the method: as §1
# [9] = molecular target: GlcNAc(b1-3)Man
# Summary of the method: as §1
# [10] = molecular target: GlcNAc(b1-3)[GlcNAc(b1-4)][GlcNAc(b1-6)]GlcNAc
# Summary of the method: as §1
# [11] = molecular target: GlcNAc(b1-3)[GlcNAc(b1-6)]Gal(b1-4)GlcNAc
# Summary of the method: as §1
# [12] = molecular target: GlcNAc(b1-3)[GlcNAc(b1-6)]GalNAc
# Summary of the method: as §1
# [13] = molecular target: GlcNAc(b1-4)Gal(b1-4)GlcNAc
# Summary of the method: as §1
# [14] = molecular target: GlcNAc(b1-4)GlcNAc
# Summary of the method: as §1
# [15] = molecular target: GlcNAc(b1-4)GlcNAc(b1-4)GlcNAc
# Summary of the method: as §1
# [16] = molecular target: GlcNAc(b1-4)GlcNAc(b1-4)GlcNAc(b1-4)GlcNAc(b1-4)GlcNAc
# Summary of the method: as §1
# [17] = molecular target: GlcNAc(b1-4)GlcNAc(b1-4)GlcNAc(b1-4)GlcNAc(b1-4)GlcNAc(b1-4)GlcNAc
# Summary of the method: as §1
# [18] = molecular target: GlcNAc(b1-4)[GlcNAc(b1-6)]GalNAc
# Summary of the method: as §1
# [19] = molecular target: GlcNAc(b1-6)Gal(b1-4)GlcNAc
# Summary of the method: as §1
# [20] = molecular target: GlcNAc(b1-6)GalNAc
# Summary of the method: as §1
# [21] = molecular target: GlcNAc6S(b1-3)Gal(b1-4)GlcNAc
# Summary of the method: as §1
# [22] = molecular target: Kdn(a2-3)Gal(b1-3)GalNAc
# Summary of the method: as §1
# [23] = molecular target: Kdn(a2-3)Gal(b1-3)GlcNAc
# Summary of the method: as §1
# [24] = molecular target: Kdn(a2-3)Gal(b1-4)Glc
# Summary of the method: as §1
# [25] = molecular target: Kdn(a2-3)Gal(b1-4)GlcNAc
# Summary of the method: as §1
# [26] = molecular target: Kdn(a2-3)Gal(b1-4)[Fuc(a1-3)]GlcNAc
# Summary of the method: as §1
# [27] = molecular target: Kdn(a2-6)Gal(b1-4)GlcNAc
# Summary of the method: as §1
# [28] = molecular target: Man(a1-2)Man(a1-2)Man(a1-3)Man
# Summary of the method: as §1
# [29] = molecular target: Man(a1-2)Man(a1-2)Man(a1-6)[Man(a1-3)]Man
# Summary of the method: as §1
# [30] = molecular target: Man(a1-2)Man(a1-3)Man
# Summary of the method: as §1
# [31] = molecular target: Man(a1-2)Man(a1-3)[Man(a1-2)Man(a1-6)]Man
# Summary of the method: as §1
# [32] = molecular target: Man(a1-2)Man(a1-3)[Man(a1-2)Man(a1-6)]Man(a1-6)[Man(a1-2)Man(a1-2)Man(a1-3)]Man
# Summary of the method: as §1
# [33] = molecular target: Man(a1-2)Man(a1-3)[Man(a1-2)Man(a1-6)]Man(a1-6)[Man(a1-2)Man(a1-2)Man(a1-3)]Man(b1-4)GlcNAc(b1-4)GlcNAc
# Summary of the method: as §1
# [34] = molecular target: Man(a1-2)Man(a1-3)[Man(a1-6)]Man(a1-6)[Man(a1-2)Man(a1-3)]Man(b1-4)GlcNAc(b1-4)GlcNAc
# Summary of the method: as §1
# [35] = molecular target: Man(a1-2)Man(a1-6)[Man(a1-3)]Man(a1-6)[Man(a1-2)Man(a1-2)Man(a1-3)]Man
# Summary of the method: as §1
# [36] = molecular target: Man(a1-2)Man(a1-6)[Man(a1-3)]Man(a1-6)[Man(a1-2)Man(a1-2)Man(a1-3)]Man(b1-4)GlcNAc(b1-4)GlcNAc
# Summary of the method: as §1
# [37] = molecular target: Man(a1-3)[Man(a1-6)]Man
# Summary of the method: as §1
# [38] = molecular target: Man(a1-3)[Man(a1-6)]Man(a1-6)[Man(a1-2)Man(a1-3)]Man(b1-4)GlcNAc(b1-4)GlcNAc
# Summary of the method: as §1
# [39] = molecular target: Man(a1-3)[Man(a1-6)]Man(a1-6)[Man(a1-3)]Man
# Summary of the method: as §1
# [40] = molecular target: Man(a1-3)[Man(a1-6)]Man(a1-6)[Man(a1-3)]Man(b1-4)GlcNAc(b1-4)GlcNAc
# Summary of the method: as §1
# [41] = molecular target: Man(a1-3)[Man(a1-6)]Man(b1-4)GlcNAc(b1-4)GlcNAc
# Summary of the method: as §1
# [42] = molecular target: Man(a1-3)[Man(a1-6)]Man(b1-4)GlcNAc(b1-4)[Fuc(a1-6)]GlcNAc
# Summary of the method: as §1
# [43] = molecular target: Man(a1-6)Man
# Summary of the method: as §1
# [44] = molecular target: Man(b1-4)GlcNAc
# Summary of the method: as §1
# [45] = molecular target: MurNAc(b1-4)GlcNAc
# Summary of the method: as §1
binder,measurement,setting,value
B1,glycan array binding signal (z-score),[1],0.133
same,glycan array binding signal (z-score),[2],0.086
same,glycan array binding signal (z-score),[3],-0.584
same,glycan array binding signal (z-score),[4],0.108
same,glycan array binding signal (z-score),[5],-0.502
same,glycan array binding signal (z-score),[6],-0.386
same,glycan array binding signal (z-score),[7],0.003
same,glycan array binding signal (z-score),[8],-0.376
same,glycan array binding signal (z-score),[9],-0.654
same,glycan array binding signal (z-score),[10],-0.024
same,glycan array binding signal (z-score),[11],-0.22
same,glycan array binding signal (z-score),[12],-0.225
same,glycan array binding signal (z-score),[13],-0.272
same,glycan array binding signal (z-score),[14],-0.427
same,glycan array binding signal (z-score),[15],-0.544
same,glycan array binding signal (z-score),[16],-0.482
same,glycan array binding signal (z-score),[17],-0.522
same,glycan array binding signal (z-score),[18],-0.384
same,glycan array binding signal (z-score),[19],0.154
same,glycan array binding signal (z-score),[20],-0.008
same,glycan array binding signal (z-score),[21],-0.036
same,glycan array binding signal (z-score),[22],-0.145
same,glycan array binding signal (z-score),[23],-0.219
same,glycan array binding signal (z-score),[24],-0.284
same,glycan array binding signal (z-score),[25],0.143
same,glycan array binding signal (z-score),[26],0.16
same,glycan array binding signal (z-score),[27],-0.425
same,glycan array binding signal (z-score),[28],-0.289
same,glycan array binding signal (z-score),[29],-0.347
same,glycan array binding signal (z-score),[30],-0.55
same,glycan array binding signal (z-score),[31],-0.727
same,glycan array binding signal (z-score),[32],0.591
same,glycan array binding signal (z-score),[33],0.147
same,glycan array binding signal (z-score),[34],-0.061
same,glycan array binding signal (z-score),[35],-0.308
same,glycan array binding signal (z-score),[36],-0.396
same,glycan array binding signal (z-score),[37],0.343
same,glycan array binding signal (z-score),[38],-0.333
same,glycan array binding signal (z-score),[39],-0.212
same,glycan array binding signal (z-score),[40],-0.353
same,glycan array binding signal (z-score),[41],-0.771
same,glycan array binding signal (z-score),[42],-0.222
same,glycan array binding signal (z-score),[43],0.174
same,glycan array binding signal (z-score),[44],0.693
same,glycan array binding signal (z-score),[45],-0.294

# 2 entries drawn at random from the list so far, as already listed:
binder,measurement,setting,value
B1,glycan array binding signal (z-score),[8],-0.376
same,glycan array binding signal (z-score),[29],-0.347

# From the supplement of paper PMC8728848
